The list is a part of this screen's results and no random one: it gathers tests that were run many times, whatever their T/C, doses with no T/C, and many T/C values between a quarter and a half above the control. Further doses and runs are listed elsewhere. T/C is the treated group as % of the vehicle group. Some doses have a count of surviving animals in place of a T/C: the source holds a T/C of zero for them, seemingly a mark for toxic or unscored doses. Some survivor counts are full or nearly so, which does not show that the dose was tolerated: the source hardly ever lists a survival T/C far under the control, and the zero likely stands for such cases as well. Counts of survivors are from the toxicity check (mostly the fifth day) where no day follows; animals may have died later. Schedule codes are those of the source, read here as Q, the interval in days (D) or hours (H), X, the number of doses. Where survival is the endpoint, this PubChem deposit counts one and a half times the control or more as active, and values a quarter to a half above the control carry no call in these data; other NCI protocols may use other cut-offs.
Tested on: P388 leukemia ip, CD2F1 mice, survival T/C
Assay: NCI In Vivo Anticancer Drug Screen. Data for tumor model P388 Leukemia (intraperitoneal) in CD2F1 (CDF1) mice
Settings: T/C endpoint: median survival time, higher T/C = longer survival
[1] = dose: 240.0 mg/kg/injection, schedule: Q01DX005 (ip), vehicle: saline with Tween-80
[2] = dose: 50.0 mg/kg/injection, schedule: Q01DX005 (ip), vehicle: Klucel (hydroxypropylcellulose) (HPC)
[3] = dose: 100.0 mg/kg/injection, schedule: Q01DX005 (ip), vehicle: Klucel (hydroxypropylcellulose) (HPC)
[4] = dose: 200.0 mg/kg/injection, schedule: Q01DX005 (ip), vehicle: Klucel (hydroxypropylcellulose) (HPC)
[5] = dose: 60.0 mg/kg/injection, schedule: Q01DX005 (ip), vehicle: saline with Tween-80
[6] = dose: 120.0 mg/kg/injection, schedule: Q01DX005 (ip), vehicle: saline with Tween-80
[7] = dose: 200.0 mg/kg/injection, schedule: Q01DX005 (ip), vehicle: saline with Tween-80
[8] = dose: 200.0 mg/kg/injection, schedule: Q01DX009 (ip), vehicle: saline with Tween-80
[9] = dose: 200.0 mg/kg/injection, schedule: Q01DX009 (ip), vehicle: saline
[10] = dose: 30.0 mg/kg/injection, schedule: Q01DX005 (ip), vehicle: saline with Tween-80

For CC(C)(C)c1ccc(OP(=S)(N/N=C/c2ccccc2O)Oc2ccc(C(C)(C)C)cc2)cc1, the survivor count (dose: 100.0 mg/kg/injection, schedule: Q01DX009 (ip), vehicle: saline with Tween-80) was 6 of 6.

For CN(C)C(=[Se])[Se]C(=[Se])N(C)C, the survivor count (dose: 60.0 mg/kg/injection, schedule: Q01DX005 (ip), vehicle: Klucel (hydroxypropylcellulose) (HPC)) was 0 of 6, the survivor count (dose: 120.0 mg/kg/injection, schedule: Q01DX005 (ip), vehicle: Klucel (hydroxypropylcellulose) (HPC)) was 0 of 6 and the survivor count (dose: 240.0 mg/kg/injection, schedule: Q01DX005 (ip), vehicle: Klucel (hydroxypropylcellulose) (HPC)) was 0 of 6.

With O=C(/C=C/c1c[nH]c2ccccc12)c1ccccc1[N+](=O)[O-] the survivor count [1] was 6 of 6.

In the case of [CH3][Sn]([CH3])([n]1cnc2ccccc21)[n]1cnc2ccccc21, the survivor count [2] is reported as 1 of 6, the survivor count [3] is reported as 4 of 6 and the survivor count [4] is reported as 0 of 6.

In the case of C=C1N=NN(c2cccc(C(F)(F)F)c2)C1N1CCOCC1 (configuration not stated), the survivor count [1] is reported as 3 of 6.

With O=C(Nc1ccccc1Cl)Oc1ccc(C(=O)c2ccccc2)cc1 the survivor count [5] was 6 of 6, the survivor count [6] was 6 of 6 and the survivor count [1] was 6 of 6.

With C=CCOc1nc(OCC=C)nc(OCC=C)n1 the survivor count (dose: 400.0 mg/kg/injection, schedule: Q01DX009 (ip), vehicle: saline with Tween-80) was 1 of 6.

COc1ccc(S(=O)(=O)N/N=C/c2ncc[nH]2)cc1 was tested, and the survivor count [7] was 0 of 6.

For OC(c1ccccc1)(C(F)(F)F)C(F)(F)F, the survivor count [8] was 4 of 6.

With CC([NH-])C(=O)O.[Cl][Pt][Cl] (configuration not stated) the T/C (dose: 12.5 mg/kg/injection, schedule: Q01DX009 (ip), vehicle: distilled water + Tween-80) was 142 % of control, the survivor count (dose: 50.0 mg/kg/injection, schedule: Q01DX009 (ip), vehicle: distilled water + Tween-80) was 2 of 5 and the survivor count (dose: 100.0 mg/kg/injection, schedule: Q01DX009 (ip), vehicle: distilled water + Tween-80) was 0 of 5. For the same compound, the survivor count (dose: 200.0 mg/kg/injection, schedule: Q01DX009 (ip), vehicle: distilled water + Tween-80) was 0 of 5 and the survivor count [9] was 2 of 4.

With CN(CC#N)Cc1ccccc1 the survivor count [6] was 0 of 6 and the survivor count [1] was 0 of 6.

For CN=C(NC)c1ccc(NC(=O)c2cc(OC)cc(C(=O)Nc3ccc(C(=NC)NC)cc3)c2)cc1, the survivor count [2] was 0 of 6, the survivor count [3] was 0 of 6 and the survivor count [4] was 0 of 6.

With C[n+]1c(-c2ccc(/C=N\Nc3nnc(S)n3/N=C/c3ccc(-c4cn5ccccc5[n+]4C)cc3)cc2)cn2ccccc21 the survivor count (dose: 7.5 mg/kg/injection, schedule: Q01DX005 (ip), vehicle: saline with Tween-80) was 0 of 6, the survivor count (dose: 15.0 mg/kg/injection, schedule: Q01DX005 (ip), vehicle: saline with Tween-80) was 0 of 6 and the survivor count [10] was 0 of 6. For the same compound, the survivor count [5] was 0 of 6, the survivor count [6] was 0 of 6 and the survivor count [1] was 0 of 6.

In the case of CN(NC(=O)CC(=O)NN(C)C(=S)c1ccccc1)C(=S)c1ccccc1, the survivor count (dose: 100.0 mg/kg/injection, schedule: Q01DX009 (ip), vehicle: gum acacia) is reported as 6 of 6.

In the case of CCSc1nc2ccc(Nn3nnnc3-c3ccccc3)cc2s1, the survivor count (dose: 100.0 mg/kg/injection, schedule: Q01DX009 (ip), vehicle: Klucel (hydroxypropylcellulose) (HPC)) is reported as 6 of 6.

In the case of C=CCOc1cc2c(cc1C(C)(C)c1ccc(OC)cc1)OCO2, the T/C [1] is reported as 126 % of control.

In the case of O=C(N/N=C/c1ccccc1O)c1cc2ccccc2cc1O, the survivor count [10] is reported as 6 of 6, the survivor count [5] is reported as 6 of 6 and the survivor count [6] is reported as 6 of 6. The survivor count [1] was 6 of 6.

O=C1N(CCc2ccccc2)CCCS1(=O)=O was tested, and the survivor count [7] was 0 of 6.

With CCN(CC)CCN1C(=O)CN=C(c2ccc[nH]2)c2cc(Cl)ccc21 the survivor count [8] was 6 of 6.

In the case of O=S(=O)(O)C(I)S(=O)(=O)O, the survivor count [9] is reported as 1 of 6.

O=C(CI)N(O)c1ccccc1OCc1ccccc1 was tested, and the survivor count (dose: 100.0 mg/kg/injection, schedule: Q01DX001 (ip), vehicle: saline) was 1 of 6, the survivor count (dose: 200.0 mg/kg/injection, schedule: Q01DX001 (ip), vehicle: saline) was 1 of 6 and the survivor count (dose: 400.0 mg/kg/injection, schedule: Q01DX001 (ip), vehicle: saline) was 0 of 6.

In the case of O=C1CCOc2cccc(c2)OCCC(=O)OCCCOC(=O)CCOc2cccc(c2)OCCC(=O)OCCCO1, the survivor count [3] is reported as 6 of 6 and the survivor count [4] is reported as 6 of 6.

With C=C1C(=O)C2=CC1CCC(=O)C1(C)C(OC(C)=O)CC(OC(C)=O)C(C)(C)C1CC2O (configuration not stated) the survivor count (dose: 140.0 mg/kg/injection, schedule: Q01DX005 (ip), vehicle: Klucel (hydroxypropylcellulose) (HPC)) was 0 of 6.

— PubChem BioAssay AID330 (DTP/NCI, 2004)
